In patent publication US20220009894A1, “1,2,3,4-TETRAHYDROQUINOXALINE DERIVATIVE, PREPARATION METHOD THEREFOR AND APPLICATION THEREOF” (Abbisko Therapeutics Co., Ltd., priority 2019, published 2022):
For at least one compound, name, drawing or mass did not settle the structure.

Tests used:
RORγt = molecular target: T1, RORγt (Homo sapiens, UniProt P51449); test: RORγt cellular reporter gene detection assay; type: cell-based; conditions: upper activation limit; HEK 293 cells, in presence of antagonist Ursolic acid, 24 hrs;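 note: Ursolic Acid added as 5 µL of 20 µM medium per well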
T1 construct: The plasmid of pFN26A-RORγt-LBD and pG14.35 (Promega, Cat. No. E1370) were co-transfected into HEK 293 cells; expressed in transfected cells; host or cells: HEK 293 cells (Cat. No. GNHu18)
T1 sequence (P51449 269-508 limits assumed): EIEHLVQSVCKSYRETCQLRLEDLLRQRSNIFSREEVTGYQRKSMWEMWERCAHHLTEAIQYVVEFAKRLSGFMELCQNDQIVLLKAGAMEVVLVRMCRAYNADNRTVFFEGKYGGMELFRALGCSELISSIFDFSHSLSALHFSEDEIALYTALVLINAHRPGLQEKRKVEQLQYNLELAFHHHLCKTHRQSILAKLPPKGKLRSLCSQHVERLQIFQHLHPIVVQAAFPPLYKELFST
Procedure: II. RORγt Cellular Reporter Gene Detection Assay
In this experiment, RORγt Reporter Gene Detection method was used to evaluate the activation and specificity of compounds to RORγt in cells. The plasmid of pFN26A-RORγt-LBD and pG14.35 (Promega, Cat. No. E1370) were co-transfected into HEK 293 cells (Cat. No. GNHu18). The efficacy of compounds was evaluated with the presence of an antagonist Ursolic acid (Selleck, Cat. No. S2370-100 mg). The specific experimental process was as follow: • 1. The plasmids-co-transfected cells were inoculated into a 96-well plate (Corning, Cat. No 3610) in a fresh DMEM medium (Gibco, cat. No. 1773536) containing 10% fetal bovine serum (Gibco, Cat. No. 10099-141) at 30000 cells/40 μL/well; • 2. 5 μL of medium containing 20 μM Ursolic acid was added thereto; • 3. The dose effect was evaluated by a 4-fold dilution of the test compound starting from 50 μM; • 4. 5 μL of medium containing a compound concentration of 10-fold of its final test concentration was added; • 5. After the cells were incubated at 37° C. and 5% CO2 for 24 hrs, 50 μL of detection reagent was added to detect firefly fluorescence using PerkinElmerEnVision, and 50 μL of the second detection reagent was added to detect sea kidney fluorescence; • 6. A four-parameter curve simulated in GraphPad Prism was used to determine the concentration for 50% activation (EC50) and the upper activation limit (Amax) for each compound.

RORγt-LBD = molecular target: T2, RORγt-LBD (Homo sapiens, UniProt P51449); test: Time-resolved fluorescence resonance energy-transfer assay (TR-FRET), co-activator peptide recruitment; type: biochemical; set-up: unit not given here; conditions: upper activation limit; His-RORγt-LBD, SRC peptide
T2 sequence (P51449 269-508 limits assumed): T1 sequence (P51449 269-508 limits assumed)
From the text: I. Time-Resolved Fluorescence Resonance Energy-Transfer Assay (TR-FRET)
This experiment was a screening experiment for RORγt nuclear receptor agonists based on TR-FRET technology. When His-labeled RORγt-LBD receptor binds to receptor agonists, it may increase the recruitment of biotin-labeled co-activator peptides. Europium-His-RORγt-LBD is indirectly labeled by donor (Eu) by binding to Eu-anti-His antibody. Once Eu is activated by an energy source (such as flashlight or laser), the energy will be transferred to the co-activator indirectly labeled by allophycocyanin by binding of allophycocyanin-streptavidin and biotin-labeled co-activator. • 1. 10× buffer (500 mM Tris-HCl, 500 mM KCl, and 10 mM Na-EDTA) was prepared, pH value was adjusted to 7.0. The buffer was stored at 4° C. for later use and was restored to normal temperature before experiment; • 2. The 10× buffer was diluted to 1× with pure water. Final concentration of 0.01% Triton X-100 and 1 mM DTT (dithiothreitol) were added to prepare the assay buffer; • 3. DMSO was used to prepare 1000× compound stock solution. […] Then the corresponding signal values were read with PerkinElmer EnVision at a wavelength of 665/615 […]. The agonistic activity of the corresponding compound was calculated with Graphpad Prism 7.0 software.

| Structure (SMILES) | Cellular Reporter Assay Amax (RORγt) | TR-FRET Biochemical Amax (RORγt-LBD) |
| --- | --- | --- |
| COC(=O)CN1CCN2c3ccc(/C=C/c4c(Cl)cccc4C(F)(F)F)cc3N(S(=O)(=O)c3cccc(C(F)(F)F)c3)C[C@@H]2C1 [Example 45, methyl (S,E)-2-(8-(2-chloro-6-(trifluoromethyl)styryl)-6-((3-(trifluoromethyl)phenyl)sulfonyl)-1,2,4,4a,5,6-hexahydro-3H-pyrazino[1,2-a]quinoxalin-3-yl) acetate] | 3.9 |  |
| O=S1(=O)CCN2c3ccc(-c4cc(F)cc(OC(F)F)c4)cc3N(S(=O)(=O)c3cccc(C(F)(F)F)c3)CC2C1 (stereo not shown) [Example 102, 8-(3-(difluoromethoxy)-5-fluorophenyl)-6-((3-(trifluoromethyl)phenyl)sulfonyl)-1,2,4,4a,5,6-hexahydro-[1,4]thiazino[4,3-a]quinoxaline 3,3-dioxide] | 3.7 |  |
| O=C(O)[C@@H]1CCN2c3ccc(-c4cc(F)cc(OC(F)F)c4)cc3N(S(=O)(=O)c3cccc(C(F)(F)F)c3)C[C@@H]2C1 [Example 117, (6aS,8R)-3-(3-(difluoromethoxy)-5-fluorophenyl)-5-((3-(trifluoro-methyl)phenyl)sulfonyl)-6,6a,7,8,9,10-hexahydro-5H-pyri-do[1,2-a]quinoxaline-8-car-boxylic acid] | 5.5 | 0.61 |
